Data on 2 substances can be found in PMC5453112.

Amino acid sequences for entries named in this document (tags omitted). A change or cut given only in a name is not applied to a line headed by its entry.
UniProt Q4QD01: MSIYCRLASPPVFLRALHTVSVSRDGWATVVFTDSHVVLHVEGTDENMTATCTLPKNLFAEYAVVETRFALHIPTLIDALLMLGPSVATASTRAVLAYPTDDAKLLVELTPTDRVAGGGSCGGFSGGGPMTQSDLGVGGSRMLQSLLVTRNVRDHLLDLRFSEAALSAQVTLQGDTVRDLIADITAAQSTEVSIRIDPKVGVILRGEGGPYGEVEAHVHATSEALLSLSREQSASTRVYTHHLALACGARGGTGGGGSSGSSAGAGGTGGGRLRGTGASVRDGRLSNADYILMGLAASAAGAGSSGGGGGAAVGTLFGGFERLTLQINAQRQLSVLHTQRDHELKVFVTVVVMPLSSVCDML
UniProt Q4QBE5: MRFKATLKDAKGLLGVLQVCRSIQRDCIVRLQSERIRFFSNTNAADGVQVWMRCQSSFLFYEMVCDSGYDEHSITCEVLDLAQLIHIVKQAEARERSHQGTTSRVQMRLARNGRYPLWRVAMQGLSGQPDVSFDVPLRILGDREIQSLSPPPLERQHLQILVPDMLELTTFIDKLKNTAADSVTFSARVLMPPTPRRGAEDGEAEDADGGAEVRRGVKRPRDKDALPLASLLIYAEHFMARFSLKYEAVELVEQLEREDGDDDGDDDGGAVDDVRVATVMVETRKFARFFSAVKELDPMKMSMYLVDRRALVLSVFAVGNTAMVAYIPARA

Results are given in words; binding and its absence hold for the method and conditions named. Binding seen in cells or lysates may run through a third protein. A result given as binding can be weak or reduced; the word gives no strength.

Assay [1] deals with LmRad1 (L. major (endogenous in L. major LT252)) (UniProt Q4QD01). Description: co-IP; extract of LmHus1-12xMyc-expressing L. major cells, IP with mouse anti-LmRad1 serum (pre-immune serum as control) on Dynabeads; Buffer A (50 mM Tris pH 9.0, 400 mM KCl, 1% NP40), ~4 h at 4°C; western blot with anti-LmRad9, anti-Myc and anti-LmRad1. (In general: A western blot detects proteins with antibodies after separation by electrophoresis.)

Assay [2] concerns the target C-terminally 12xMyc tagged LmHus1 (LmHus1-12xMyc) (L. major) (UniProt Q4QBE5). Description: co-IP; extract of LmHus1-12xMyc-expressing L. major cells (WT cells as control), IP with mouse anti-Myc monoclonal antibody on Dynabeads; Buffer A (50 mM Tris pH 9.0, 400 mM KCl, 1% NP40), ~4 h at 4°C; western blot with anti-LmRad9, anti-LmRad1 and anti-Myc.

For “C-terminally 12xMyc tagged LmHus1 (LmHus1-12xMyc) (from UniProt Q4QBE5)”, the binding result in assay [1] is reported as “binds”.
Turning to LmRad1 (from UniProt Q4QD01), the binding entry in assay [2] is recorded as “binds”.
